Assay results as given in PubChem BioAssay AID1990 (Broad Institute, 2009).
The median lay at about -60%. Some of the results follow. Potency and affinity values are given separately. The source made no clear call on entries shown without one.

Protein sequences, listed by entry. Tags and fused reporters are not part of them.
UniProt P08659, whole entry, looked up: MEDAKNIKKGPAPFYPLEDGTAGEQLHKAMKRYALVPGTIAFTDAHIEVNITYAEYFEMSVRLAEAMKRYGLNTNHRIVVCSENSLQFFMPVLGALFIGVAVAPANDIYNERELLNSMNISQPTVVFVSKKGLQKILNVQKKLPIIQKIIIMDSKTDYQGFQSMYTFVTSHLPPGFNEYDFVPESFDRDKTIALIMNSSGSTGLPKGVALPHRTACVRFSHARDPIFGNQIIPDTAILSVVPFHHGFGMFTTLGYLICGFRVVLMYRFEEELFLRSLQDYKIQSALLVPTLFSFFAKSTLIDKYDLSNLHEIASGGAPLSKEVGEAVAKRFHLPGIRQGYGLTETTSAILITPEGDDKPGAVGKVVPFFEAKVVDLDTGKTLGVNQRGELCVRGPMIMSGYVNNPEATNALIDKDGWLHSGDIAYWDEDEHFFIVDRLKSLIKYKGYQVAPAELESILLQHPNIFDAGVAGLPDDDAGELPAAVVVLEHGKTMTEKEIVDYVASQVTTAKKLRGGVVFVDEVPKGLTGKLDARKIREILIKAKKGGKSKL

What follows are compounds tested against Luciferin 4-monooxygenase (Photinus pyralis) (UniProt P08659) (assay: Photinus pyralis luciferase inhibitors, H4 neuroglioma cells, confirmatory dose response, luminescence (AID 1990)). Settings: at 12 µM (top of the series) unless noted.

| SMILES | activity change, negative = inhibition |
| --- | --- |
| O=C(Nc1ccc(NC(=O)c2cc3ccccc3o2)cc1)c1ccc2c(c1)OCCO2 | -63% |
| O=C(/C=C/c1ccco1)Oc1cc(Br)cc(/C=N/NC(=O)c2ccccc2O)c1 | -78.6% |
| Clc1ccc(/C=C/c2nc3ccccc3[nH]2)cc1 | -46.6% |
| CC(=O)c1ccc(N=Nc2ccc(N(C)C)cc2)cc1 | -65.6% |
| Cc1cc(C(=O)Cn2nnc3ccccc3c2=O)c(C)n1-c1ccccc1F | -30.2% |
| Cc1ccc(NC(=O)c2ccc3c(c2)OCCO3)cc1C | -72.9% |
| Nc1nc(-c2ccc(NC(=O)c3ccco3)cc2)cs1 | -53.8% |
| COc1ccc(OCc2cccc(C(=O)Nc3cc(C)on3)c2)cc1 | -57.7% |
| C(=N\Nc1nc2ccccc2[nH]1)/c1ccccn1 | -97.7% |
| COC(=O)Nc1nc2ccc(C(=O)c3cccs3)cc2[nH]1 | -40.3% |
| Cc1cnc(NC(=O)COc2ccccc2Cl)s1 | -82.3% |
| N#Cc1cc2cc3c(cc2nc1SCC(=O)N1CCOCC1)OCCO3 | -72.7% |
| COc1ccc2c(C)nc(Nc3nc(C)c(C)c(=O)[nH]3)nc2c1 | 161% [at 6 µM] |
| Nc1nc(Cl)nc2c1ncn2[C@H]1C[C@H](O)[C@@H](CO)O1 | -93.5% |
| Nc1cccc2nc3ccccc3cc12 | -95.9% |
| O=C(/C=C\Nc1cccc(F)c1)c1ccc2c(c1)OCO2 | -49.5% |
| Cc1ccc(N=Nc2cc(C)ccc2N)cc1 | 168% [at 6 µM] |
| O=C(/C=C/Nc1ccc(Br)cc1F)c1ccccc1 | -69.8% |
| Cc1cc(C(=O)Nc2ccc3c(c2)OCCO3)ccc1[N+](=O)[O-] | -55.7% |

| SMILES | activity change, negative = inhibition |
| --- | --- |
| O=C(Nc1ccc(-c2nc3ccccc3s2)cc1)C1=COCCO1 | -96.2% |
| CCN1/C(=C/c2ccc3cc(C)ccc3[n+]2CC)Sc2ccccc21 | -60.8% [at 3 µM] |
| COc1ccc(-c2cc3c(nn2)-c2ccccc2C3=O)cc1 | -73.5% |
| Cc1ccc2c(COC(=O)C3=COCCO3)cc(=O)oc2c1 | -49.3% |
| O=C1NC(=O)/C(=C\c2ccc(OCc3cccc(C(=O)O)c3)c(Cl)c2)N1 | 1% |
| CN(C)c1ccc(/C=C/c2nc3ccccc3c(=O)[nH]2)cc1 | -56% |
| CCc1ccc(CNC(=O)Cc2ccc(NC(=O)C3=C(C)OCCS3)cc2)cc1 | -37.5% |
| Fc1ccccc1/C=N/Nc1nc(-c2ccccn2)nc2ccccc12 | -75% |
| O=C1c2ccccc2C(=O)C1c1ccc2ccccc2n1 | -68.6% |
| c1ccc2nc(-c3nc4ccccc4[nH]3)ccc2c1 | -69.5% |
| Cc1cc(C(=O)Nc2ccc(Cl)cc2)c(C)n1-c1ccccc1 | -81.5% |
| COc1cc(NC(=O)N2CCNC2=O)cc(C(=O)Nc2cccc(C(F)(F)F)c2)c1 | -74.7% |
| Cc1nc(C)c(C(=O)Nc2ncc([N+](=O)[O-])s2)o1 | -55.8% |
| COc1ccc(N=CC2=C(O)c3ccccc3C2=O)c(OC)c1 | 250% [at 6 µM] |
| Cc1ccc2nc(-c3ccc(NC(=O)COC(=O)c4ccc([N+](=O)[O-])o4)cc3)sc2c1 | -18.5% |
| O=C(Nc1ccc(Oc2c(F)c(F)c(F)c(F)c2F)cc1)OC1CCN2Cc3ccccc3N=C12 (stereo not drawn) | -98% |
| O=[N+]([O-])c1cc(/C=N/n2cnnc2)ccc1N1CCCC1 | -62% |
| Cc1cn(-c2cc(C(=O)Nc3ccc(C)c(NC(=O)C(=O)c4c[nH]c5ccccc45)c3)cc(C(F)(F)F)c2)cn1 | -51.1% |
| Cc1ccc(NC(=O)c2ccc3c(c2)OCCO3)nc1 | -57% |

In the list so far, two have bromine.

| SMILES | activity change, negative = inhibition |
| --- | --- |
| O=C(/C=C/c1ccco1)Oc1cc(Br)cc(/C=N/NC(=O)c2ccccc2O)c1 | -78.6% |
| O=C(/C=C/Nc1ccc(Br)cc1F)c1ccccc1 | -69.8% |
